According to paper PMC6349432:
No constants are given. Whether binding was seen depends on the method and setting. In cells and extracts the contact can be indirect. Some results given as binding are weak or reduced against the parent protein; the word gives no strength. For some assays here: Where a sequence is shown, tags or fusion partners need not be part of it.

Legend:
[1] = biological target: T1, annexin A6 (AnxA6), endogenous in empty vector control MDA-MB-468 cells (human (endogenous in MDA-MB-468)) (UniProt P08133); assay: co-IP; antibodies against AnxA6 and protein A/G plus agarose beads, overnight at 4 C; whole cell extracts of EV control and AnxA6 overexpressing MDA-MB-468 cells, with or without GTP; western blot
T1 sequence: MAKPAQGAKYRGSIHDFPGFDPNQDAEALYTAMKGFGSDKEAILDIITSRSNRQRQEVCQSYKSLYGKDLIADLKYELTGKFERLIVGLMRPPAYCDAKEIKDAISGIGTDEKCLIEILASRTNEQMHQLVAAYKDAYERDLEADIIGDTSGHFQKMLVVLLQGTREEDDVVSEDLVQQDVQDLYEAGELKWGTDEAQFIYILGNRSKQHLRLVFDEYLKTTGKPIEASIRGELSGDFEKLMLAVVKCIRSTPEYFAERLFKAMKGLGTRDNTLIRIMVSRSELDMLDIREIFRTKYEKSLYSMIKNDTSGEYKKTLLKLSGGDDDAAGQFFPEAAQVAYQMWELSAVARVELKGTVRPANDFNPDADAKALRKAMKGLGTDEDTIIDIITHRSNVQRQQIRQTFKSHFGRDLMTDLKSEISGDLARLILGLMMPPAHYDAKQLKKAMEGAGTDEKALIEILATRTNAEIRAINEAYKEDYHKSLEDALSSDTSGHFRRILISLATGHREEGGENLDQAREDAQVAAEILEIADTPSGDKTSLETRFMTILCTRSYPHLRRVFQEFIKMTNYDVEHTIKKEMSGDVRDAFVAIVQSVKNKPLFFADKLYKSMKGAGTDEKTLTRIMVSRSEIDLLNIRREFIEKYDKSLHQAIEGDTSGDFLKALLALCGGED

[2] = biological target: T2, flag-tagged AnxA6 expressed in MDA-MB-468 cells (UniProt P08133); assay: as above
T2 sequence: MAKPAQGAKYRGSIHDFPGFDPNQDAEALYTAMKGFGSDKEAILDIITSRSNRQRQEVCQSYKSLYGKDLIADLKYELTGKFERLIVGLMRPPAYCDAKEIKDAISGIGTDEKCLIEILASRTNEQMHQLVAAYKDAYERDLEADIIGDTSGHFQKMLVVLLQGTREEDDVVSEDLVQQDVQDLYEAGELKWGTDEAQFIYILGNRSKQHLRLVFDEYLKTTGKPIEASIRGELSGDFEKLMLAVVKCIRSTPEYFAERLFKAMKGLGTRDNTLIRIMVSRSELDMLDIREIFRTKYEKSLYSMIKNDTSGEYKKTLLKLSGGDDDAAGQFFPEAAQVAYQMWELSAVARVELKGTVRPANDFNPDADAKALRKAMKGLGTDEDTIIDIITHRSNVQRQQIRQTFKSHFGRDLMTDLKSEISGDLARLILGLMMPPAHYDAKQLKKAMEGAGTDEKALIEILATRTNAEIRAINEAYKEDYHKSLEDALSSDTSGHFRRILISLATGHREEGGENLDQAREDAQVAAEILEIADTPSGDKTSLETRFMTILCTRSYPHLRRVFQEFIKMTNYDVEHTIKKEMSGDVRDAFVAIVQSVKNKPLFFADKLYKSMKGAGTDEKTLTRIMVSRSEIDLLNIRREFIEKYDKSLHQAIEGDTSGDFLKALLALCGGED

binding [1]: binds | binding [2]: binds
B1: RasGRF2 (protein, UniProt O14827 1-1237)
chain: MQKSVRYNEGHALYLAFLARKEGTKRGFLSKKTAEASRWHEKWFALYQNVLFYFEGEQSCRPAGMYLLEGCSCERTPAPPRAGAGQGGVRDALDKQYYFTVLFGHEGQKPLELRCEEEQDGKEWMEAIHQASYADILIEREVLMQKYIHLVQIVETEKIAANQLRHQLEDQDTEIERLKSEIIALNKTKERMRPYQSNQEDEDPDIKKIKKVQSFMRGWLCRRKWKTIVQDYICSPHAESMRKRNQIVFTMVEAESEYVHQLYILVNGFLRPLRMAASSKKPPISHDDVSSIFLNSETIMFLHEIFHQGLKARIANWPTLILADLFDILLPMLNIYQEFVRNHQYSLQVLANCKQNRDFDKLLKQYEANPACEGRMLETFLTYPMFQIPRYIITLHELLAHTPHEHVERKSLEFAKSKLEELSRVMHDEVSDTENIRKNLAIERMIVEGCDILLDTSQTFIRQGSLIQVPSVERGKLSKVRLGSLSLKKEGERQCFLFTKHFLICTRSSGGKLHLLKTGGVLSLIDCTLIEEPDASDDDSKGSGQVFGHLDFKIVVEPPDAAAFTVVLLAPSRQEKAAWMSDISQCVDNIRCNGLMTIVFEENSKVTVPHMIKSDARLHKDDTDICFSKTLNSCKVPQIRYASVERLLERLTDLRFLSIDFLNTFLHTYRIFTTAAVVLGKLSDIYKRPFTSIPVRSLELFFATSQNNRGEHLVDGKSPRLCRKFSSPPPLAVSRTSSPVRARKLSLTSPLNSKIGALDLTTSSSPTTTTQSPAASPPPHTGQIPLDLSRGLSSPEQSPGTVEENVDNPRVDLCNKLKRSIQKAVLESAPADRAGVESSPAADTTELSPCRSPSTPRHLRYRQPGGQTADNAHCSVSPASAFAIATAAAGHGSPPGFNNTERTCDKEFIIRRTATNRVLNVLRHWVSKHAQDFELNNELKMNVLNLLEEVLRDPDLLPQERKAAANILRALSQDDQDDIHLKLEDIIQMTDCMKAECFESLSAMELAEQITLLDHVIFRSIPYEEFLGQGWMKLDKNERTPYIMKTSQHFNDMSNLVASQIMNYADVSSRANAIEKWVAVADICRCLHNYNGVLEITSALNRSAIYRLKKTWAKVSKQTKALMDKLQKTVSSEGRFKNLRETLKNCNPPAVPYLGMYLTDLAFIEEGTPNFTEEGLVNFSKMRMISHIIREIRQFQQTSYRIDHQPKVAQYLLDKDLIIDEDTLYELSLKIEPRLPA
